Data from the supplement of paper PMC4604168 (melanoma cell lines).
The list shows a part of the results. Many values rest on one well or one pass, so single values are uncertain.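 Cells were imaged in 1,536-well plates, and nuclei stained with an antibody against cleaved PARP were counted against all DNA-stained nuclei to give the apoptosis fraction. Screening doses were chosen to leave most cells alive, and resting and induced cleaved-PARP levels differ strongly between cell lines.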

How the values were obtained:
Experiment in all cases: cleaved PARP positive nuclei fraction relative to DMSO control; melanoma cells; higher = more apoptosis
Conditions in all cases: library dose: low library concentration; 72 h
501Mel = system: 501Mel
A101D = system: A101D
A2058 = system: A2058
A375 = system: A375
C32 = system: C32
CBRC008 = system: CBRC008 (line from a melanoma biopsy)
CBRC013 = system: CBRC013 (line from a melanoma biopsy)
CBRC014 = system: CBRC014 (line from a melanoma biopsy)
CBRC016 = system: CBRC016 (line from a melanoma biopsy)
CBRC017 = system: CBRC017 (line from a melanoma biopsy)
COLO792 = system: COLO792
COLO800 = system: COLO800
COLO829 = system: COLO829
G361 = system: G361
IPC-298 = system: IPC-298
IST-MEL1 = system: IST-MEL1
LB2518-MEL = system: LB2518-MEL
LOXIMVI = system: LOXIMVI
MEL-HO = system: MEL-HO

Compound | cleaved PARP positive nuclei fraction (501Mel) [%] | cleaved PARP positive nuclei fraction (A101D) [%] | cleaved PARP positive nuclei fraction (A2058) [%] | cleaved PARP positive nuclei fraction (A375) [%] | cleaved PARP positive nuclei fraction (C32) [%] | cleaved PARP positive nuclei fraction (CBRC008) [%] | cleaved PARP positive nuclei fraction (CBRC013) [%] | cleaved PARP positive nuclei fraction (CBRC014) [%] | cleaved PARP positive nuclei fraction (CBRC016) [%] | cleaved PARP positive nuclei fraction (CBRC017) [%] | cleaved PARP positive nuclei fraction (COLO792) [%] | cleaved PARP positive nuclei fraction (COLO800) [%] | cleaved PARP positive nuclei fraction (COLO829) [%] | cleaved PARP positive nuclei fraction (G361) [%] | cleaved PARP positive nuclei fraction (IPC-298) [%] | cleaved PARP positive nuclei fraction (IST-MEL1) [%] | cleaved PARP positive nuclei fraction (LB2518-MEL) [%] | cleaved PARP positive nuclei fraction (LOXIMVI) [%] | cleaved PARP positive nuclei fraction (MEL-HO) [%]
Cc1cc(Nc2cc(N3CCN(C)CC3)nc(Sc3ccc(NC(=O)C4CC4)cc3)n2)n[nH]1 [Tozasertib] + CO[C@@H]1[C@H](N(C)C(=O)c2ccccc2)C[C@H]2O[C@]1(C)n1c3ccccc3c3c4c(c5c6ccccc6n2c5c31)C(=O)NC4 [Midostaurin] (first compound 0.006 µM, partner dose 0.08 µM) | 144 | 138 | 38.6 | 46.4 | 66.2 | 169 | 121 | 80.5 | 34.7 | 108 | 178 | 91.9 | 122 | 164 | 73.5 | 100 | 92.5 | 124 | 67.5
O=C(Nc1cc(C(F)(F)F)cc(C(F)(F)F)c1)c1cc(Cl)ccc1O + Cn1cncc1[C@@](N)(c1ccc(Cl)cc1)c1ccc2c(c1)c(-c1cccc(Cl)c1)cc(=O)n2C [tipifarnib] (first compound 0.016 µM, partner dose 0.01 µM) | 97.4 | 604 | 116 | 221 | 44.1 | 55.7 | 139 | 90.5 | 138 | 117 | 155 | 109 | 59.7 | 15.5 | 180 | 37 | 59.5 | 61.7 | 67.4
N#CC[C@H](C1CCCC1)n1cc(-c2ncnc3[nH]ccc23)cn1 [ruxolitinib] + O=C(CCCCCCC(=O)Nc1ccccc1)NO [vorinostat] (first compound 1 µM, partner dose 0.08 µM) | 35.7 | 212 | 89.5 | 99 | 36.6 | 114 | 85.7 | 90.4 | 136 | 104 | 156 | 33.8 | 53.2 | 63.1 | 128 | 135 | 18.1 | 49.4 | 144
O=C(/C=C/c1cccnc1)NCCCCC1CCN(C(=O)c2ccccc2)CC1 + COc1cc2c(Oc3ccc4[nH]c(C)cc4c3F)ncnc2cc1OCCCN1CCCC1 [cediranib] (first compound 0.01 µM, partner dose 0.4 µM) | 91.4 | 86.2 | 85.7 | 123 | 95.5 | 4300 | 75.9 | 88.2 | 469 | 266 | 236 | 283 | 401 | 2620 | 212 | 191 | 282 | 68.9 | 361
N#CC[C@H](C1CCCC1)n1cc(-c2ncnc3[nH]ccc23)cn1 [ruxolitinib] + CC(C)(C)c1cnc(CSc2cnc(NC(=O)C3CCNCC3)s2)o1 [SNS-032] (first compound 1 µM, partner dose 0.01 µM) | 72.5 | 68.8 | 197 | 74.2 | 106 | 44.5 | 92.5 | 87.6 | 61.7 | 123 | 80 | 22.3 | 87.2 | 107 | 82 | 34.5 | 148 | 55.6 | 101
Cc1cn(-c2cc(NC(=O)c3ccc(C)c(Nc4nccc(-c5cccnc5)n4)c3)cc(C(F)(F)F)c2)cn1 [nilotinib] + COc1cc(Nc2ncc(F)c(Nc3ccc4c(n3)NC(=O)C(C)(C)O4)n2)cc(OC)c1OC [Tamatinib] (first compound 0.2 µM, partner dose 0.4 µM) | 91.4 | 112 | 166 | 245 | 187 | 132 | 138 | 78.4 | 184 | 177 | 70.6 | 127 | 82.2 | 264 | 99.4 | 21.9 | 288 | 228 | 332
O=c1[nH]nc(Sc2ncc([N+](=O)[O-])s2)n1-c1ccc2c(c1)OCCO2 + COc1cc2c(Oc3ccc4[nH]c(C)cc4c3F)ncnc2cc1OCCCN1CCCC1 [cediranib] (first compound 0.2 µM, partner dose 0.4 µM) | 155 | 196 | 102 | 74.5 | 170 | 198 | 88 | 96.5 | 69.7 | 90.7 | 119 | 135 | 74.9 | 39.3 | 45.4 | 126 | 85.5 | 26.9 | 121
CC[C@]1(O)C[C@H]2CN(CCc3c([nH]c4ccccc34)[C@@](C(=O)OC)(c3cc4c(cc3OC)N(C=O)[C@H]3[C@@](O)(C(=O)OC)[C@H](OC(C)=O)[C@]5(CC)C=CCN6CC[C@]43[C@@H]65)C2)C1 [vincristine] + O=C(O)c1ccc(-c2c[nH]c3ncc(-c4ccccc4)cc23)cc1C1CCCC1 [GSK650394] (first compound 0.0001 µM, partner dose 0.16 µM) | 202 | 126 | 867 | 303 | 295 | 291 | 59 | 85.8 | 150 | 111 | 91 | 57.8 | 147 | 87.1 | 46.9 | 124 | 106 | 90.4 | 145
O=C(Nc1cc(C(F)(F)F)cc(C(F)(F)F)c1)c1cc(Cl)ccc1O + O=C(CCCCCCC(=O)Nc1ccccc1)NO [vorinostat] (first compound 0.016 µM, partner dose 0.08 µM) | 196 | 85.4 | 63.5 | 129 | 33.3 | 42.5 | 128 | 88.3 | 205 | 114 | 171 | 47.1 | 88.6 | 107 | 42.8 | 101 | 48.1 | 81.2 | 35.7
O=c1[nH]nc(Sc2ncc([N+](=O)[O-])s2)n1-c1ccc2c(c1)OCCO2 + CC(C)(C)c1cnc(CSc2cnc(NC(=O)C3CCNCC3)s2)o1 [SNS-032] (first compound 0.2 µM, partner dose 0.01 µM) | 151 | 41.9 | 135 | 109 | 143 | 62.1 | 153 | 99.3 | 158 | 157 | 68 | 106 | 71.3 | 64.3 | 28.3 | 101 | 100 | 54.4 | 62.9
COc1cc([C@@H]2c3cc4c(cc3[C@@H](O[C@@H]3O[C@@H]5CO[C@@H](C)O[C@H]5[C@H](O)[C@H]3O)[C@H]3COC(=O)[C@H]23)OCO4)cc(OC)c1O [etoposide] + O=C(O)c1ccc(-c2c[nH]c3ncc(-c4ccccc4)cc23)cc1C1CCCC1 [GSK650394] (first compound 0.02 µM, partner dose 0.16 µM) | 57.1 | 43.6 | 192 | 109 | 61.5 | 366 | 151 | 88.6 | 337 | 137 | 115 | 199 | 66.9 | 133 | 67.7 | 399 | 106 | 23.2 | 77
COc1cc([C@@H]2c3cc4c(cc3[C@@H](O[C@@H]3O[C@@H]5CO[C@@H](C)O[C@H]5[C@H](O)[C@H]3O)[C@H]3COC(=O)[C@H]23)OCO4)cc(OC)c1O [etoposide] + CN(NC(=O)CC(=O)NN(C)C(=S)c1ccccc1)C(=S)c1ccccc1 [STA4783] (first compound 0.02 µM, partner dose 0.006 µM) | 179 | 24.1 | 177 | 5370 | 175 | 2240 | 94.9 | 619 | 137 | 271 | 182 | 122 | 159 | 177 | 99.5 | 183 | 221 | 72.6 | 71.1
Cc1ccc(Nc2nccc(N(C)c3ccc4c(C)n(C)nc4c3)n2)cc1S(N)(=O)=O [Pazopanib] + CC(C)(C)c1cnc(CSc2cnc(NC(=O)C3CCNCC3)s2)o1 [SNS-032] (first compound 0.4 µM, partner dose 0.01 µM) | 69.7 | 78.4 | 42.8 | 208 | 134 | 42.7 | 144 | 35.1 | 81.9 | 89.7 | 138 | 123 | 114 | 142 | 49.8 | 128 | 85.9 | 26.7 | 128
Cc1cc(Nc2cc(N3CCN(C)CC3)nc(Sc3ccc(NC(=O)C4CC4)cc3)n2)n[nH]1 [Tozasertib] + COc1cc2c(Oc3ccc4[nH]c(C)cc4c3F)ncnc2cc1OCCCN1CCCC1 [cediranib] (first compound 0.006 µM, partner dose 0.4 µM) | 96.6 | 82.8 | 230 | 123 | 136 | 253 | 120 | 82.4 | 29.9 | 73.6 | 104 | 92.1 | 112 | 139 | 62.1 | 114 | 213 | 63.9 | 31.7
CCCCCCCCCCCCCCCCCCOP(=O)([O-])OC1CC[N+](C)(C)CC1 [Perifosine] + NCC(=O)Nc1ccc(-n2nc(C(F)(F)F)cc2-c2ccc3c(ccc4ccccc43)c2)cc1 [OSU03012] (first compound 0.4 µM, partner dose 1 µM) | 402 | 66.9 | 114 | 9070 | 83.6 | 170 | 129 | 78.5 | 113 | 99.2 | 71.3 | 108 | 114 | 63.1 | 53 | 45.9 | 93.2 | 48.9 | 638
CC[C@]1(O)C[C@H]2CN(CCc3c([nH]c4ccccc34)[C@@](C(=O)OC)(c3cc4c(cc3OC)N(C=O)[C@H]3[C@@](O)(C(=O)OC)[C@H](OC(C)=O)[C@]5(CC)C=CCN6CC[C@]43[C@@H]65)C2)C1 [vincristine] + C[C@@H]1CCN(C(=O)CC#N)C[C@@H]1N(C)c1ncnc2[nH]ccc12 [CP690550] (first compound 0.0001 µM, partner dose 1 µM) | 204 | 154 | 571 | 56.6 | 26.1 | 80.1 | 111 | 65.8 | 94.8 | 71.2 | 81.4 | 86.3 | 116 | 189 | 80.5 | 68.5 | 62.4 | 304 | 40.4

2 entries from above, as tab-separated lines:
Compound	cleaved PARP positive nuclei fraction (501Mel) [%]	cleaved PARP positive nuclei fraction (A101D) [%]	cleaved PARP positive nuclei fraction (A2058) [%]	cleaved PARP positive nuclei fraction (A375) [%]	cleaved PARP positive nuclei fraction (C32) [%]	cleaved PARP positive nuclei fraction (CBRC008) [%]	cleaved PARP positive nuclei fraction (CBRC013) [%]	cleaved PARP positive nuclei fraction (CBRC014) [%]	cleaved PARP positive nuclei fraction (CBRC016) [%]	cleaved PARP positive nuclei fraction (CBRC017) [%]	cleaved PARP positive nuclei fraction (COLO792) [%]	cleaved PARP positive nuclei fraction (COLO800) [%]	cleaved PARP positive nuclei fraction (COLO829) [%]	cleaved PARP positive nuclei fraction (G361) [%]	cleaved PARP positive nuclei fraction (IPC-298) [%]	cleaved PARP positive nuclei fraction (IST-MEL1) [%]	cleaved PARP positive nuclei fraction (LB2518-MEL) [%]	cleaved PARP positive nuclei fraction (LOXIMVI) [%]	cleaved PARP positive nuclei fraction (MEL-HO) [%]
O=c1[nH]nc(Sc2ncc([N+](=O)[O-])s2)n1-c1ccc2c(c1)OCCO2 + CC(C)(C)c1cnc(CSc2cnc(NC(=O)C3CCNCC3)s2)o1 [SNS-032] (first compound 0.2 µM, partner dose 0.01 µM)	151	41.9	135	109	143	62.1	153	99.3	158	157	68	106	71.3	64.3	28.3	101	100	54.4	62.9
COc1cc([C@@H]2c3cc4c(cc3[C@@H](O[C@@H]3O[C@@H]5CO[C@@H](C)O[C@H]5[C@H](O)[C@H]3O)[C@H]3COC(=O)[C@H]23)OCO4)cc(OC)c1O [etoposide] + O=C(O)c1ccc(-c2c[nH]c3ncc(-c4ccccc4)cc23)cc1C1CCCC1 [GSK650394] (first compound 0.02 µM, partner dose 0.16 µM)	57.1	43.6	192	109	61.5	366	151	88.6	337	137	115	199	66.9	133	67.7	399	106	23.2	77
